In article PMC6312541:
No constants are given. Whether binding was seen depends on the method and setting. Binding seen in cells or lysates may run through a third protein. Binding calls can cover weak binding; strength is not graded here.

By UniProt entry, the sequences of proteins in these tests, tags left out. Where a name states a change or a piece, a line headed by the entry shows the natural chain unless it says otherwise.
UniProt Q13283: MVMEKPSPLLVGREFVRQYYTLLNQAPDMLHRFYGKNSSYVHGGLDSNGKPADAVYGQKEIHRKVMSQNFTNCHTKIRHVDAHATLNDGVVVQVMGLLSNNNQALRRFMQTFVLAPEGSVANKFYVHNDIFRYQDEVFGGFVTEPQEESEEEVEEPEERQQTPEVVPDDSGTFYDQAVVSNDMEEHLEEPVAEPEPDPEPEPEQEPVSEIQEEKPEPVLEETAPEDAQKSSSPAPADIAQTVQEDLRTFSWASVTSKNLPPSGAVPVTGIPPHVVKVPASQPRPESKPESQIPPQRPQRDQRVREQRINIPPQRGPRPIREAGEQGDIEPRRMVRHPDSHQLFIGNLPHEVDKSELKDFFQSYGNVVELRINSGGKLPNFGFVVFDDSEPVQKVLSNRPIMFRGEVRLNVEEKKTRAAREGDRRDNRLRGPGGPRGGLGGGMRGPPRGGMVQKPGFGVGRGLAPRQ
UniProt Q04637: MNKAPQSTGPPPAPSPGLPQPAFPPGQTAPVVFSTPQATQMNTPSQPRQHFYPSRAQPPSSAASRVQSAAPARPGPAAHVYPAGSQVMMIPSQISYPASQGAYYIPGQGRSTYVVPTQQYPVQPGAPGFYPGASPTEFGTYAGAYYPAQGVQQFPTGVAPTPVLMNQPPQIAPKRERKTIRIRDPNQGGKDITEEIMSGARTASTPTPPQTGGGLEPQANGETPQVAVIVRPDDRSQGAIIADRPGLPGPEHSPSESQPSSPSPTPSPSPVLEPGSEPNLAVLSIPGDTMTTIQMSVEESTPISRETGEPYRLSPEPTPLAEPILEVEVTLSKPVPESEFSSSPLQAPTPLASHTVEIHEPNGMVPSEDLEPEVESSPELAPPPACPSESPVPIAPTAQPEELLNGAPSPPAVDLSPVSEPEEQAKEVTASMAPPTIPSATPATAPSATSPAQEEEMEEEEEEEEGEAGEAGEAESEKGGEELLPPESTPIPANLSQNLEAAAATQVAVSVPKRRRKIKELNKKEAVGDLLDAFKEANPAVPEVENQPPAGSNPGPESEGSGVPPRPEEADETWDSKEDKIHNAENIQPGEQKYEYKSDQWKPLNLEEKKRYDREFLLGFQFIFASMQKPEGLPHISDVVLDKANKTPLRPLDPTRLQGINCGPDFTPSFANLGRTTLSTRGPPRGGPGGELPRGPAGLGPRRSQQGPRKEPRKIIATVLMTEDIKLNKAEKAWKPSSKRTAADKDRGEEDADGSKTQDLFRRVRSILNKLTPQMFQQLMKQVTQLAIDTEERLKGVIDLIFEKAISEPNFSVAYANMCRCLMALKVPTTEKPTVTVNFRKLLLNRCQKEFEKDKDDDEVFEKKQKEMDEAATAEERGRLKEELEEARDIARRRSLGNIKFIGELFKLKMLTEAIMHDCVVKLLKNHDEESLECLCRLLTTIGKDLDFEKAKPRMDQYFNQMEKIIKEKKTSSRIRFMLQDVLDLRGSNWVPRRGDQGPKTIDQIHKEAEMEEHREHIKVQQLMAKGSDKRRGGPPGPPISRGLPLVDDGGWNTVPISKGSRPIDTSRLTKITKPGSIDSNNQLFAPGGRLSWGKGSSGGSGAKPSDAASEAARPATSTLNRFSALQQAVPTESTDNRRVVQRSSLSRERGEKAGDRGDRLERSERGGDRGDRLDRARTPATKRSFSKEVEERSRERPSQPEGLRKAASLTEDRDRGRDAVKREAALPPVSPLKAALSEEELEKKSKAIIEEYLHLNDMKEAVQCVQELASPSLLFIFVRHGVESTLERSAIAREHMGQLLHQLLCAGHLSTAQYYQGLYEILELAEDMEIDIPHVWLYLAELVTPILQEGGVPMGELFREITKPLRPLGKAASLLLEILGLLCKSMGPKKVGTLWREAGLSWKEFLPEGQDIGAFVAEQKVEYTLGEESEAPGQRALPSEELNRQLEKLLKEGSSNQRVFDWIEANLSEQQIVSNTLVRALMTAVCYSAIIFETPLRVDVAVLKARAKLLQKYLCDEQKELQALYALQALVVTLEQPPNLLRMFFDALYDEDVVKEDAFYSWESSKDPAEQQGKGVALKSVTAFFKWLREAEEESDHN

Experiments:
Assay in all cases: co-IP; IP with anti-FLAG M2 affinity gel (4 °C, 4 h) from lysates of HeLa cells transfected with Flag-tagged constructs; WB for endogenous eIF4GI; lysis buffer with 1% Triton X-100, 0.1% SDS, 1 mM EDTA, pH 7.4
[1] = target: Flag-tagged G3BP1 lacking the RNA recognition motif (G3BP1-ΔRRM) (human (from the RefSeq entry NM_005754.2)) (UniProt Q13283)
[2] = target: Flag-tagged G3BP1 lacking the acidic (ACID) domain (human (from the RefSeq entry NM_005754.2)) (UniProt Q13283)
[3] = target: Flag-tagged G3BP1 lacking the proline-rich (PxxP) domain (human (from the RefSeq entry NM_005754.2)) (UniProt Q13283)

Measured: binding

eIF4GI, endogenous (from UniProt Q04637 1-1599)
binds: all assays above
